Data as given in PubChem BioAssay AID504793 (Drosophila RNAi Screening Center, 2011)
In all, the deposit lists about 23,000 reagents; below is an unselected part of those with a known target gene and a result. In the full data, 62 (0.27%) were called active. 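Calls come from follow-up tests whose scores are not deposited, so confirmed genes may have low counts here; counts are not normalised per plate.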 The raw values are shown without normalisation. Unmarked entries are inactive. Names joined by + are all predicted targets of the reagent.

Purpose: 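Genes required for cells to halt at G2/M after double-strand DNA breaks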 (primary screen)
Cells: Drosophila S2R+ cells
Reagent: long dsRNA against Drosophila genes, about 0.25 µg dsRNA per well
Timing: 4 days of dsRNA, then 4 hours of drug before read-out
Challenge: doxorubicin 0.5 µM for 4 hours to cause double-strand breaks, in cells also given a low, harmless dose of dsRNA against nbs to sensitise the assay
Detection: 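Mitotic index as the number of phospho-histone H3-positive cells in each well following doxorubicin, given as raw counts without normalisation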
Reading the numbers: mitotic cells: higher = more cells in mitosis, weaker G2 arrest
Hit rule: 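a call needs confirmation in secondary tests, with other dsRNAs and a check of mitotic timing without damage, not just a high primary count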
Meaning of the calls: active = confirmed in follow-up tests; inactive = not confirmed

Vha100-1 (GeneID 43442) [DRSC14148] scored mitotic cells, replicate 1 = 3. Depletion of Vha100-1 (GeneID 43442) [DRSC26617] resulted in: mitotic cells, replicate 1 = 6. Knock-down of srp (GeneID 41944) [DRSC23166] gave: mitotic cells, replicate 1 = 16. Against srp (GeneID 41944) [DRSC29336], the values are mitotic cells, replicate 1 = 6. With knock-down of Qtzl (GeneID 318990) [DRSC01221] the results were mitotic cells, replicate 1 = 6. CG8569 (GeneID 36376) [DRSC07214] scored mitotic cells, replicate 1 = 8.

With knock-down of tws (GeneID 47877) [DRSC12767] the results were mitotic cells, replicate 1 = 14. For tws (GeneID 47877) [DRSC17092] the deposit lists mitotic cells, replicate 1 = 54. Knock-down of tws (GeneID 47877) [DRSC27776] came out at: mitotic cells, replicate 1 = 27. Depletion of Pvf3 (GeneID 33995) [DRSC02284] resulted in: mitotic cells, replicate 1 = 5. Pvf3 (GeneID 33995) [DRSC02285] showed mitotic cells, replicate 1 = 14. Knock-down of Pvf3 (GeneID 33995) [DRSC02286] gave: mitotic cells, replicate 1 = 7.

Pvf3 (GeneID 33995) [DRSC02751] gave mitotic cells, replicate 1 = 6. Against Pvf3 (GeneID 33995) [DRSC25172] the deposit lists mitotic cells, replicate 1 = 11. With knock-down of Pvf3 (GeneID 33995) [DRSC28641], the screen gave mitotic cells, replicate 1 = 3. With knock-down of prel (GeneID 35969) [DRSC07271], the screen gave mitotic cells, replicate 1 = 3. For AIMP3 (GeneID 246507) [DRSC04500], the values are mitotic cells, replicate 1 = 8. With knock-down of AIMP3 (GeneID 246507) [DRSC26724] the results were mitotic cells, replicate 1 = 5.

For Or45b (GeneID 35980) [DRSC07488] the deposit lists mitotic cells, replicate 1 = 7. Silencing of ave (GeneID 246638) [DRSC05502] gave: mitotic cells, replicate 1 = 6. With knock-down of ave (GeneID 246638) [DRSC28562], the screen gave mitotic cells, replicate 1 = 4. Against CG8319 (GeneID 41165) [DRSC16407], the values are mitotic cells, replicate 1 = 4. Depletion of CG8319 (GeneID 41165) [DRSC24607] gave: mitotic cells, replicate 1 = 11. For CG14795 (GeneID 31109) [DRSC18513], the values are mitotic cells, replicate 1 = 9.

Depletion of CG14795 (GeneID 31109) [DRSC26338] gave: mitotic cells, replicate 1 = 6. With knock-down of AIF (GeneID 33390) [DRSC00696] the results were mitotic cells, replicate 1 = 9. After knock-down of sncRNA:430e + His2A:CG33859 + His2A:CG33817 + 37 more [DRSC21264], the screen gave mitotic cells, replicate 1 = 19. For CG32195 (GeneID 317907) [DRSC09533] the deposit lists mitotic cells, replicate 1 = 13. For CG8010 (GeneID 32921) [DRSC20072] the deposit lists mitotic cells, replicate 1 = 9. CG8010 (GeneID 32921) [DRSC26277] gave mitotic cells, replicate 1 = 2.

Msh6 (GeneID 39654) [DRSC10759] gave mitotic cells, replicate 1 = 5. bug (GeneID 36749) [DRSC07137] scored mitotic cells, replicate 1 = 7. After knock-down of CG18477 + CG31780 [DRSC01955] the results were mitotic cells, replicate 1 = 4. Scsalpha1 (GeneID 38447) [DRSC08698] gave mitotic cells, replicate 1 = 6. Silencing of Scsalpha1 (GeneID 38447) [DRSC26856] came out at: mitotic cells, replicate 1 = 1.

2 of these entries in another layout:
gene	amplicon	mitotic cells, replicate 1
AIF (GeneID 33390)	DRSC00696	9
sncRNA:430e + His2A:CG33859 + His2A:CG33817 + 37 more	DRSC21264	19
